Results are given in words; binding and its absence hold for the method and conditions named. Binding seen in cells or lysates may run through a third protein. Binding can be weak; no strength is given. Tags and fused reporters may be left off the sequences shown.
Experiments:
[1] = molecular target: GST-ElrA_(27–723), the full-length protein without its signal-peptide (Enterococcus faecalis (strain V583)); assay: pull-down; GST-ElrA proteins bound to the beads, incubated overnight at 4 °C with HEK293T cell extracts (200–400 μg of proteins) with 3Flag-FHL2 in PBS-1% Triton X100; six washes in lysis buffer with 0.5 M NaCl; Western blot with anti-FLAG M2; only the target purified
[2] = molecular target: GST-ElrA_(474–606), the FID (Enterococcus faecalis (strain V583)); assay: as above

B1: 3Flag tagged FHL2 (protein, UniProt Q14192 1-279)
chain: MTERFDCHHCNESLFGKKYILREESPYCVVCFETLFANTCEECGKPIGCDCKDLSYKDRHWHEACFHCSQCRNSLVDKPFAAKEDQLLCTDCYSNEYSSKCQECKKTIMPGTRKMEYKGSSWHETCFICHRCQQPIGTKSFIPKDNQNFCVPCYEKQHAMQCVQCKKPITTGGVTYREQPWHKECFVCTACRKQLSGQRFTARDDFAYCLNCFCDLYAKKCAGCTNPISGLGGTKYISFEERQWHNDCFNCKKCSLSLVGRGFLTERDDILCPDCGKDI
binding [1]: binds | binding [2]: binds weakly

Source: paper PMC5496941
